Drawing on US20030202938A1 (UNIVERSITY OF MEDICINE AND DENTISTRY OF NEW JERSEY, published 2003), this text covers binding for three molecules.

The chains behind the UniProt entries cited, without tags or fusion partners. Where a name states a change or a piece, a line headed by the entry shows the natural chain unless it says otherwise. Residues count along the entry.
UniProt P20366: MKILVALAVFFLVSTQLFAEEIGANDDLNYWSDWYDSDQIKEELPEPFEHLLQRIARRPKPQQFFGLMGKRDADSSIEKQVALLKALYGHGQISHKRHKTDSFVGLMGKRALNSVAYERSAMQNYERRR
UniProt P02751, residues 627-702: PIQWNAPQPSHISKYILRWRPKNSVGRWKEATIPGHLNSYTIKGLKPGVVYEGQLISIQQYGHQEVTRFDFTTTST

Assay [1] has as its target T1, Substance P (UniProt P20366).
T1 sequence (peptide, looked up): RPKPQQFFGLM
Nature of the assay: SELDI-TOF ProteinChip, FN-IIIC covalently bound to PS-1 chip, SP added and detected.

Assay [2] addresses T1, Substance P. The experiment in a line: SELDI-TOF ProteinChip, HGFIN covalently bound to PS-1 chip, SP added and detected.
Assay [3] addresses T1, Substance P. The experiment in a line: SELDI-TOF ProteinChip, HGFIN on PS-1 chip, SP added and detected.

No constants are given. Whether binding was seen depends on the method and setting. Some entries that bind do so weakly or less than the wild type. For part of these data: Where a sequence is shown, tags or fusion partners need not be part of it.

On to “Fibronectin-Fragment III-C (from UniProt P02751 627-702)”, for which the binding result in the assay with Substance P [1] is “binds”.

B1: HGFIN-HAT (Hematopoietic Growth Factor Inducible Neurokinin-1 type protein with histidine affinity tag, expressed from pHAT10-HGFIN in bacteria) (receptor, not shown: small tags and cut ends)
chain: KRFHDVLGNERPSAYMREHNQLNGWSSDENDWNEKLYPVWKRGDMRWKNSWKGGRVQAVLTSDSPALVGSNITFAVNLIFPRCQKEDANGNIVYEKNCRNEAGLSADPYVYNWTAWSEDSDGENGTGQSHHNVFPDGKPFPHHPGWRRWNFIYVFHTLGQYFQKLGRCSVRVSVNTANVTLGPQLMEVTVYRRHGRAYVPIAQVKDVYVVTDQIPVFVTMFQKNDRNSSDETFLKDLPIMFDVLIHDPSHFLNYSTINYKWSFGDNTGLFVSTNHTVNHTYVLNGTFSLNLTVKAAAPGPCPPPPPPPRPSKPTPSLGPAGDNPLELSRIPDENCQINRYGHFQATITIVEGILEVNIIQMTDVLMPVPWPESSLIDFVVTCQGSIPTEVCTIISDPTCEITQNTVCSPVDVDEMCLLTVRRTFNGSGTYCVNLTLGDDTSLALTSTLISVPDRDPASPLRMANSALISVGCLAIFVTVISLLVYKKHKEYNPIENSPGNVVRSKGLSVFLNRAKAVFFPGNQEKDPLLKNQEFKGVS
For B1, in the assay with Substance P [2], the binding entry is listed as “binds”.

B2: HGFIN expressed in a eukaryotic vector in the absence of the HAT tag (receptor)
chain: B1 chain
B2: in the assay with Substance P [3], the binding result was “binds”.
